Assay results

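Plate-reader measure of the Venus reporter marking one vaccinia stage in infected cells (the cell line is not named here); read time unknown. The test concentration is not given here. Percent change in Venus reporter signal; lower (more negative) values mean stronger inhibition of that viral stage.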

Values are in %. The controls that fix the scale are not given here. Common to all entries: measured here: Venus reporter, other viral stage. Part of the compounds only, not a random draw; the main read-out is not listed here.

COc1cccc(NC(=O)N(C)C[C@H]2Oc3cc(C#Cc4ccc(F)cc4)ccc3S(=O)(=O)N([C@@H](C)CO)C[C@@H]2C)c1 gave activity change (Venus) -53.81%. With C[C@@H]1CN([C@H](C)CO)C(=O)c2cccc(NC(=O)Nc3ccccc3)c2O[C@H]1CN(C)Cc1ccc(Cl)c(Cl)c1 the assay gave activity change (Venus) -33.58%. For CC(C)(C)[S@](=O)N1Cc2cc(C(=O)NCCN3CCCCC3)nc(-c3cccc(-c4cccc(C#N)c4)c3)c2[C@@H]1CCO the result was activity change (Venus) -27.17%. O=C(Nc1ccc(F)cc1)N1CCCCN2[C@@H](CO)[C@@H](c3ccc(-c4ccccc4F)cc3)[C@@H]2C1 gave activity change (Venus) -71.12%.

With C[C@H](CO)N1C[C@H](C)[C@H](CN(C)C(=O)c2ccc(F)cc2)Oc2cc(C3=CCCCC3)ccc2S1(=O)=O the assay gave activity change (Venus) -43.82%. Result for COc1ccc(S(=O)(=O)Nc2ccc3c(c2)C(=O)N([C@@H](C)CO)C[C@@H](C)[C@H](CN(C)S(=O)(=O)c2cccs2)OCCCC[C@@H](C)O3)cc1 was activity change (Venus) -40.27%. With CN(C)CC(=O)N[C@@H]1C[C@@H]2O[C@@H](CO)CC[C@@H]2O[C@@H]1CCc1ccc(C2=CCCCC2)cc1 the assay gave activity change (Venus) -42.04%. With Cc1ccc(-c2ccc3c(c2)O[C@H](CN(C)C(=O)Nc2ccccc2)[C@H](C)CN([C@@H](C)CO)S3(=O)=O)cc1 the assay gave activity change (Venus) -47.7%.

For C[C@H](CO)N1C[C@H](C)[C@H](CN(C)Cc2ccc(-c3ccccc3)cc2)Oc2c(NC(=O)Nc3ccc(F)cc3)cccc2C1=O the result was activity change (Venus) -31.96%. For C[C@H]1CN([C@@H](C)CO)C(=O)Cc2cc(NC(=O)Nc3ccc(F)cc3)ccc2O[C@H]1CN(C)S(=O)(=O)c1ccccc1 the result was activity change (Venus) -22.83%. C[C@H]1CN([C@@H](C)CO)S(=O)(=O)c2ccc(C#CC(C)(C)O)cc2O[C@@H]1CN(C)Cc1ccc(-c2ccccc2)cc1 gave activity change (Venus) -75.28%. C[C@@H]1CN([C@@H](C)CO)S(=O)(=O)c2ccc(C#Cc3ccncc3)cc2O[C@H]1CN(C)C(=O)C1CCC1 gave activity change (Venus) -27.58%.

Result for C[C@@H]1CN([C@@H](C)CO)C(=O)c2cc(NS(=O)(=O)c3ccc(F)cc3)ccc2O[C@@H](C)CCCCO[C@@H]1CN(C)C(=O)c1ccccc1 was activity change (Venus) -27.19%. For CC(C)NC(=O)Nc1cccc2c1O[C@H](CN(C)Cc1ccc(Oc3ccccc3)cc1)[C@@H](C)CN([C@H](C)CO)C2=O the result was activity change (Venus) -28.73%. C[C@H](CO)N1C[C@H](C)[C@@H](CN(C)Cc2ccc(-c3ccccc3)cc2)Oc2cc(C#CC(C)(C)O)ccc2S1(=O)=O read activity change (Venus) -53.37%. Result for C[C@@H]1CN([C@H](C)CO)C(=O)c2cc(N(C)C)ccc2O[C@@H](C)CCCCO[C@H]1CN(C)C(=O)C1CCCCC1 was activity change (Venus) -19%.

COc1ccc(C#Cc2ccc([C@@H]3[C@@H](CO)N4CCCCN(Cc5ccccc5F)C[C@H]34)cc2)cc1 read activity change (Venus) -81.42%. For C[C@H]1CCCCO[C@@H](CN(C)C(=O)Cc2ccccc2)[C@@H](C)CN([C@@H](C)CO)C(=O)c2cc(NS(=O)(=O)c3ccc(Cl)cc3)ccc2O1 the result was activity change (Venus) -46.97%. For OC[C@H]1[C@@H](c2ccc(C#Cc3ccccc3F)cc2)[C@H]2CN(Cc3cncnc3)CCCCN21 the result was activity change (Venus) -46.99%. With C[C@@H]1CN([C@@H](C)CO)S(=O)(=O)c2ccc(C#CC3CCCC3)cc2O[C@@H]1CN(C)C the assay gave activity change (Venus) -49.51%.

C[C@@H]1CN([C@@H](C)CO)C(=O)c2cc(NC(=O)Nc3ccc(C(F)(F)F)cc3)ccc2O[C@@H](C)CCCCO[C@H]1CN(C)Cc1ccncc1 read activity change (Venus) -41.73%. For C[C@@H]1CN([C@@H](C)CO)S(=O)(=O)c2ccc(-c3ccccc3)cc2O[C@@H]1CN(C)C(=O)C1CCCCC1 the result was activity change (Venus) -41.59%. For COc1ccc2c3c([nH]c2c1)[C@@H](CO)N(Cc1nccs1)CC31CCN(Cc2ccncc2)CC1 the result was activity change (Venus) -61.77%. C[C@H](CO)N1C[C@H](C)[C@@H](CN(C)Cc2ccc3c(c2)OCO3)Oc2ccc(NC(=O)Cc3ccccc3)cc2CC1=O read activity change (Venus) -27.64%.

For COc1ccccc1-c1ccc2c(c1)O[C@H](CN(C)S(=O)(=O)c1ccc(F)cc1)[C@@H](C)CN([C@@H](C)CO)S2(=O)=O the result was activity change (Venus) -40.03%. With Cc1ccc(S(=O)(=O)Nc2cccc3c2O[C@@H](CN(C)C(=O)NC2CCCCC2)[C@@H](C)CN([C@H](C)CO)C3=O)cc1 the assay gave activity change (Venus) -22.78%. Cc1ccc(-c2ccc3c(c2)O[C@@H](CN(C)Cc2ccncc2)[C@H](C)CN([C@H](C)CO)S3(=O)=O)cc1 gave activity change (Venus) -45.89%. COc1ccc(S(=O)(=O)Nc2ccc3c(c2)C(=O)N([C@@H](C)CO)C[C@@H](C)[C@H](CN(C)S(=O)(=O)c2ccccc2)OCCCC[C@@H](C)O3)cc1 read activity change (Venus) -41.71%.

Result for O=C(C[C@@H]1C=C[C@@H](NC(=O)CCN2CCCCC2)[C@H](CO)O1)Nc1ccccc1 was activity change (Venus) -17.74%. Result for C[C@@H]1CN([C@@H](C)CO)S(=O)(=O)c2ccc(C#Cc3cccc(F)c3)cc2O[C@@H]1CN(C)C was activity change (Venus) -32.34%. COc1ccc(CN(C)C[C@H]2OCCCC[C@@H](C)Oc3ccc(NC(=O)Nc4ccc5c(c4)OCO5)cc3C(=O)N([C@@H](C)CO)C[C@@H]2C)cc1 gave activity change (Venus) -60.09%.

The last 4 entries again:

{"compound": "COc1ccc(S(=O)(=O)Nc2ccc3c(c2)C(=O)N([C@@H](C)CO)C[C@@H](C)[C@H](CN(C)S(=O)(=O)c2ccccc2)OCCCC[C@@H](C)O3)cc1", "activity change (Venus) (%)": "-41.71"}
{"compound": "O=C(C[C@@H]1C=C[C@@H](NC(=O)CCN2CCCCC2)[C@H](CO)O1)Nc1ccccc1", "activity change (Venus) (%)": "-17.74"}
{"compound": "C[C@@H]1CN([C@@H](C)CO)S(=O)(=O)c2ccc(C#Cc3cccc(F)c3)cc2O[C@@H]1CN(C)C", "activity change (Venus) (%)": "-32.34"}
{"compound": "COc1ccc(CN(C)C[C@H]2OCCCC[C@@H](C)Oc3ccc(NC(=O)Nc4ccc5c(c4)OCO5)cc3C(=O)N([C@@H](C)CO)C[C@@H]2C)cc1", "activity change (Venus) (%)": "-60.09"}

The results are deposited in PubChem (AID1053133; Broad Institute, 2014).